Experimental findings from PubChem BioAssay AID256 (DTP/NCI, 2004) are described below.

The list shows only some results of the screen, not a fair sample: it is rich in T/C values a quarter to a half above the control, in often repeated tests (any T/C) and in doses without a T/C. Further doses and runs are listed elsewhere. T/C: endpoint of the treated group in % of that of the vehicle group. Some entries give survivors of the animals treated and no T/C: the source files T/C as zero there, which appears to mark a toxic dose or a test without result, not a measured value. Some survivor counts are full or nearly so, which does not show that the dose was tolerated: the source hardly ever lists a survival T/C far under the control, and the zero likely stands for such cases as well. Counts of survivors are from the toxicity check (mostly the fifth day) where no day follows; animals may have died later. Schedule codes are those of the source, taken here to give the interval after Q, in days (D) or hours (H), and the number of doses after X. Some entries were tested several times; the results are listed from low to high. Some structures stand for samples that the source files as different forms (salt, stereo form or complex); doses refer to the form tested. For survival time, the PubChem record calls one and a half times the control and up active, and a quarter to a half above the control has no call in these data; cut-offs in other NCI protocols can differ.

The assay concerns CD2F1 mice, L1210 leukemia ip, survival T/C. Description: NCI In Vivo Anticancer Drug Screen. Data for tumor model L1210 Leukemia (intraperitoneal) in CD2F1 (CDF1) mice. Conditions: higher T/C = longer survival. The procedure, abridged: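 Tumor-bearing mice (transplanted tumor) were split into treated and vehicle control groups, and the measured endpoint of each treated group was divided by that of its vehicle controls.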

[1] abbreviates: T/C endpoint: mean survival time, dose: 200.0 mg/kg/injection, schedule: Q01DX009 (ip), vehicle: saline with Tween-80.
The mark [2] stands for this setting: T/C endpoint: mean survival time, dose: 400.0 mg/kg/injection, schedule: Q01DX009 (ip), vehicle: saline with Tween-80.
[3] abbreviates: T/C endpoint: mean survival time, dose: 100.0 mg/kg/injection, schedule: Q01DX009 (ip), vehicle: saline with Tween-80.
Setting [4] is: T/C endpoint: mean survival time, dose: 400.0 mg/kg/injection, schedule: Q04DX003 (ip), vehicle: saline with Tween-80.
The mark [5] stands for this setting: T/C endpoint: mean survival time, dose: 50.0 mg/kg/injection, schedule: Q01DX009 (ip), vehicle: water.
[6] abbreviates: T/C endpoint: mean survival time, dose: 100.0 mg/kg/injection, schedule: Q01DX009 (ip), vehicle: water.
Setting [7] is: T/C endpoint: mean survival time, dose: 200.0 mg/kg/injection, schedule: Q01DX009 (ip), vehicle: water.
[8] abbreviates: T/C endpoint: mean survival time, dose: 200.0 mg/kg/injection, schedule: Q04DX003 (ip), vehicle: saline with Tween-80.

`C1OC1CN1CCN(CC2CO2)CC1` (centres undefined): the T/C is 126 % of control (T/C endpoint: mean survival time, dose: 8.0 mg/kg/injection, schedule: Q03HX008 (ip), vehicle: saline); 131 % of control (T/C endpoint: mean survival time, dose: 8.0 mg/kg/injection, schedule: Q03HX016 (ip), vehicle: saline); 135 % of control (T/C endpoint: mean survival time, dose: 8.0 mg/kg/injection, schedule: Q03HX024 (ip), vehicle: saline); 132 % of control (T/C endpoint: mean survival time, dose: 16.0 mg/kg/injection, schedule: Q01DX009 (ip), vehicle: saline); 126 % of control (T/C endpoint: mean survival time, dose: 16.0 mg/kg/injection, schedule: Q01DX009 (sc), vehicle: saline); 125 % of control (T/C endpoint: mean survival time, dose: 32.0 mg/kg/injection, schedule: Q01DX001 (ip), vehicle: saline). Besides, the T/C reads like this: (T/C endpoint: mean survival time, dose: 32.0 mg/kg/injection, schedule: Q01DX009 (sc), vehicle: saline) 140 % of control; (T/C endpoint: mean survival time, dose: 32.0 mg/kg/injection, schedule: Q04DX003 (ip), vehicle: saline) 149 % of control; (T/C endpoint: mean survival time, dose: 64.0 mg/kg/injection, schedule: Q01DX009 (oral), vehicle: saline) 139 % of control; (T/C endpoint: mean survival time, dose: 128.0 mg/kg/injection, schedule: Q01DX001 (oral), vehicle: saline) 138 % of control; (T/C endpoint: mean survival time, dose: 128.0 mg/kg/injection, schedule: Q01DX001 (sc), vehicle: saline) 125 % of control. In addition, the survivor count (T/C endpoint: mean survival time, dose: 16.0 mg/kg/injection, schedule: Q03HX008 (ip), vehicle: saline) was 5 of 10; the survivor count (T/C endpoint: mean survival time, dose: 16.0 mg/kg/injection, schedule: Q03HX016 (ip), vehicle: saline) is 6 of 10; the survivor count (T/C endpoint: mean survival time, dose: 16.0 mg/kg/injection, schedule: Q03HX024 (ip), vehicle: saline) was 7 of 10; the survivor count (T/C endpoint: mean survival time, dose: 32.0 mg/kg/injection, schedule: Q03HX008 (ip), vehicle: saline) is recorded as 5 of 10; the survivor count (T/C endpoint: mean survival time, dose: 32.0 mg/kg/injection, schedule: Q03HX016 (ip), vehicle: saline) is 3 of 10; the survivor count (T/C endpoint: mean survival time, dose: 32.0 mg/kg/injection, schedule: Q03HX024 (ip), vehicle: saline) is 4 of 10. The survivor count runs as follows: (T/C endpoint: mean survival time, dose: 128.0 mg/kg/injection, schedule: Q01DX009 (ip), vehicle: saline) 5 of 10; (T/C endpoint: mean survival time, dose: 128.0 mg/kg/injection, schedule: Q01DX009 (oral), vehicle: saline) 8 of 10; (T/C endpoint: mean survival time, dose: 128.0 mg/kg/injection, schedule: Q01DX009 (sc), vehicle: saline) 9 of 10; (T/C endpoint: mean survival time, dose: 256.0 mg/kg/injection, schedule: Q01DX001 (ip), vehicle: saline) 4 of 10; (T/C endpoint: mean survival time, dose: 256.0 mg/kg/injection, schedule: Q01DX001 (oral), vehicle: saline) 5 of 10; (T/C endpoint: mean survival time, dose: 256.0 mg/kg/injection, schedule: Q01DX001 (sc), vehicle: saline) 8 of 10. Also, the survivor count is given as 8 of 10 (T/C endpoint: mean survival time, dose: 256.0 mg/kg/injection, schedule: Q01DX009 (oral), vehicle: saline); 9 of 10 (T/C endpoint: mean survival time, dose: 256.0 mg/kg/injection, schedule: Q04DX003 (ip), vehicle: saline); 8 of 10 (T/C endpoint: mean survival time, dose: 256.0 mg/kg/injection, schedule: Q08DX002 (ip), vehicle: saline); 6 of 10 (T/C endpoint: mean survival time, dose: 512.0 mg/kg/injection, schedule: Q01DX001 (oral), vehicle: saline); 6 of 10 (T/C endpoint: mean survival time, dose: 512.0 mg/kg/injection, schedule: Q01DX009 (oral), vehicle: saline); 6 of 10 (T/C endpoint: mean survival time, dose: 1024.0 mg/kg/injection, schedule: Q01DX001 (oral), vehicle: saline).

As for `CCOC(=O)c1ccc(N)cc1`, the survivor count (T/C endpoint: mean survival time, dose: 300.0 mg/kg/injection, schedule: Q01DX001 (ip), vehicle: other) is recorded as 2 of 6 and the survivor count (T/C endpoint: mean survival time, dose: 300.0 mg/kg/injection, schedule: Q04DX003 (ip), vehicle: saline with Tween-80) is recorded as 3 of 6.

As for `NNC(=O)COc1ccc(Cl)cc1Cl`, the survivor count runs as follows: under setting [1], 3 of 6; under setting [2], 0 of 6.

Consider `COc1ccccc1N=Nc1c(O)n(-c2ccccc2OC)c(=S)n(-c2ccccc2OC)c1=O`, for which, where the note is “T/C endpoint: mean survival time, dose: 400.0 mg/kg/injection, schedule: Q01DX001 (ip), vehicle: saline with Tween-80”, the survivor count is 0 of 6.

`C[N+](C)(CC(=O)Nc1ccc(Cl)cc1)Cc1ccc2c(c1)CCCC2`: the survivor count is 0 of 6 under setting [3]; 0 of 3 (T/C endpoint: mean survival time, dose: 100.0 mg/kg/injection, schedule: Q04DX002 (ip), vehicle: saline with Tween-80); 0 of 6 under setting [1]; 0 of 3 (T/C endpoint: mean survival time, dose: 200.0 mg/kg/injection, schedule: Q04DX002 (ip), vehicle: saline with Tween-80); 0 of 6 under setting [2]; 0 of 3 (T/C endpoint: mean survival time, dose: 400.0 mg/kg/injection, schedule: Q04DX002 (ip), vehicle: saline with Tween-80).

For `CCc1ccc(C(C)(C)C)cc1`, the survivor count under setting [4] is given as 6 of 6.

In the case of `Nc1cc(S(=O)(=O)O)c2cccnc2c1O`, for the setting “T/C endpoint: mean survival time, dose: 400.0 mg/kg/injection, schedule: Q04DX003 (ip), vehicle: saline”, the survivor count is recorded as 3 of 6.

`COc1ccc2c(c1)C=CC(C#N)N2` (centres undefined): the survivor count under setting [4] is recorded as 6 of 6.

Take `Cc1ccc([Si](OO[Si](c2ccccc2)(c2ccccc2)c2ccc(C)cc2)(c2ccccc2)c2ccccc2)cc1`: the survivor count is given as 6 of 6 under setting [3], 6 of 6 under setting [1] and 6 of 6 under setting [2].

Take `O=C1C2C3C=CC(O3)C2C(=O)N1O` (centres undefined): the survivor count under setting [5] was 6 of 6, the survivor count under setting [6] was 3 of 6 and the survivor count under setting [7] is listed as 0 of 6.

`C=CCn1c(NCCN(CC)CC)nc2ccc(Cl)cc2c1=O`: the survivor count by setting is: (T/C endpoint: mean survival time, dose: 100.0 mg/kg/injection, schedule: Q04DX003 (ip), vehicle: saline with Tween-80) 3 of 6; under setting [8], 0 of 6; under setting [4], 0 of 6.

In the case of `N#Cc1ccccc1NN=NCc1ccccc1`, the survivor count (T/C endpoint: mean survival time, dose: 200.0 mg/kg/injection, schedule: Q01DX001 (ip), vehicle: saline with Tween-80) is 6 of 6.

For the molecule `CS(=O)(=O)c1nnc(-c2ccccc2)s1`, the survivor count (T/C endpoint: mean survival time, dose: 400.0 mg/kg/injection, schedule: Q04DX003 (ip), vehicle: Klucel (hydroxypropylcellulose) (HPC)) is 6 of 6.

As for `Brc1nc(Br)c(Br)[nH]1`, the survivor count is 0 of 6 under setting [8] and 0 of 6 under setting [4].

As for `Cn1c2nc3ccccc3c-2nc2ccccc21`, the survivor count runs as follows: under setting [5], 6 of 6; under setting [6], 6 of 6; under setting [7], 5 of 6; (T/C endpoint: mean survival time, dose: 400.0 mg/kg/injection, schedule: Q01DX009 (ip), vehicle: Klucel (hydroxypropylcellulose) (HPC)) 1 of 6; (T/C endpoint: mean survival time, dose: 400.0 mg/kg/injection, schedule: Q01DX009 (ip), vehicle: water) 0 of 6.

For the molecule `O=NN(CCCl)C(=O)Oc1cc(Cl)c(Cl)cc1Cl`, the T/C (T/C endpoint: median survival time, dose: 50.0 mg/kg/injection, schedule: Q01DX009 (ip), vehicle: Klucel (hydroxypropylcellulose) (HPC)) is 137 % of control. Also, the survivor count (T/C endpoint: median survival time, dose: 200.0 mg/kg/injection, schedule: Q01DX009 (ip), vehicle: Klucel (hydroxypropylcellulose) (HPC)) is 0 of 6 and 5 of 6.

In the case of `Cc1c(O)c(Br)c(C)c(O)c1Br` (tested in a mixture with another compound), under “T/C endpoint: mean survival time, dose: 400.0 mg/kg/injection, schedule: Q01DX001 (ip), vehicle: saline”, the survivor count is recorded as 0 of 6.

In the case of `O=C(O)/C=C\C(=O)OCc1ccc(Cl)cc1Cl`, the survivor count reads like this: under setting [1], 2 of 6; under setting [2], 0 of 6.

As for `c1ccc(-c2csc3c4ccccc4c4ccccc4[n+]23)cc1`, the survivor count runs as follows: (T/C endpoint: mean survival time, dose: 75.0 mg/kg/injection, schedule: Q01DX001 (ip), vehicle: saline) 0 of 6; (T/C endpoint: mean survival time, dose: 150.0 mg/kg/injection, schedule: Q01DX001 (ip), vehicle: saline) 0 of 6; (T/C endpoint: mean survival time, dose: 300.0 mg/kg/injection, schedule: Q01DX001 (ip), vehicle: saline) 0 of 6.
